Percent effect of library compounds

Measurements from “University of Dundee, Small-Polar-MMV Screening Library” (2021), ChEMBL document CHEMBL3988442.

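Growth of Mycobacterium tuberculosis over 4 days (cholesterol / DPPC medium with tyloxapol); the read-out is not stated. Compounds at 50 µM. The record gives no direction; compounds that gave an IC50 in retests scored well above the rest, so higher reads as more growth inhibition. Size under these conditions: about 69,000 compounds, about 370 of them at 50% or above in at least one test.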

Values are the deposited “Percent Effect”, in %. The controls that fix the scale are not given in the record; negative values are as filed. The compounds are a random part of those screened. Two or more numbers in one place are separate tests of the same structure; such repeats can differ widely.

Compound,effect
Cc1ccc(CCC(C)NC2CCN(C(N)=O)CC2)cc1 (stereo not drawn),-2.535
CC(C)c1nccn1-c1cncc(C2CCCN(C3CCCC3)C2)n1 (stereo not drawn),-14.85
COCCNC(=O)NC(c1ccccc1)c1ccccc1OC (stereo not drawn),2.929
CC(C)N(C)Cc1nnc2n1CCCN(c1cnccn1)C2,1.316
CN(CCc1ccncc1)C(=O)C1CSCN1C(=O)CC(C)(C)C (stereo not drawn),-11.64
CN1CCCN(C(=O)c2cc3c(s2)CCN3C(=O)c2ccccc2)CC1,-4.956
CCN(CC)C(=O)[C@@H]1C[C@@H](n2cc(-c3ccccn3)nn2)CN1,-12.35
Cc1cc(C)c(C(=O)N2CCn3nc(C(=O)NCCN(C)C)cc3C2)[nH]1,-3.056 & 13.48
Cc1nc(-c2cnn(C)c2)nc2c1CN(C(=O)c1ccc[nH]1)CC2,-21.11
Cn1cc(C2CCCN2C(=O)c2cn(-c3ccccc3)nn2)cn1 (stereo not drawn),-2.154
CC(C)(C)n1nc(C2CC2)cc1C(=O)NC1CCN(CC(N)=O)CC1,-23.15
CN(CCc1ccccn1)Cc1nccn1Cc1ccccc1,7.534 & -1.016
COc1ccc(-n2cc(CNC(=O)c3ccccn3)nn2)cc1,-12.83
Cc1cc(N(C)C)nc(C2COCCN2Cc2cc(C)on2)n1 (stereo not drawn),-1.938 & -6.933
O=C(O)C(F)(F)F.[H][C@@]12COC[C@]1(CNC(=O)c1ccccc1)CN(Cc1scnc1C)C2,5.118
CCN(CC)C1CCN(C(=O)Nc2cc(F)c(OC)c(F)c2)C1 (stereo not drawn),16.56
CO[C@H]1CN(C(=O)c2cn3cc(C)ccc3n2)CC[C@@]12CCCO2,-7.255 & -3.742
CCCN1CCCn2c(nc(CNC(=O)c3ccsc3)cc2=O)C1.O=C(O)C(F)(F)F,11.62
Cn1c(C2CC2)nc2c1CCN(CCOc1cccc(F)c1)C2,-19.48
O=C(c1cc(F)ccc1F)C1CCN(C(=O)c2ccco2)CC1,-9.946
Cn1cc(N2CC3(COCCN(Cc4ccccn4)C3)OCC2=O)cn1.O=C(O)C(F)(F)F (stereo not drawn),-31.97
O=C(Nc1cccnc1)Nc1ccn(CC(F)F)n1,16.49
O=C(O)C(F)(F)F.O=C(O)C(F)(F)F.O=C(O)C(F)(F)F.[H][C@@]12COC[C@]1([H])[C@H](OCc1ccccn1)CN2Cc1cccnc1,14.61
CSCCCN1CCn2nc(CNC(=O)N(C)C)cc2C1,-15.24 & 6.143
CCc1cc(NCCc2cnccn2)n2nc(C)c(C)c2n1,-8.507
[H][C@@]12CO[C@@H](CNC(=O)c3nccn3C)[C@]1([H])CCN(S(C)(=O)=O)C2,-5.437
NC(=O)CN1CCN(c2ccnc3c(F)ccc(F)c23)CC1,-7.086
O=C(NCCCO)Nc1cccc(I)c1,-6.554
O=C(c1cc(-c2ccccc2)nc2onc(C3CC3)c12)N1CC[C@H](O)C1,-8.219
O=C(O)C(F)(F)F.[H][C@@]12CN(Cc3ccsc3)C[C@]1([H])[C@@H]2CC(=O)N1CCCC1,7.642
CCCc1nc(C)c(C(=O)NC2CCN(CC(N)=O)CC2)s1,15.1
O=C(O)C(F)(F)F.[H][C@@]12OCCN(C(=O)c3cscn3)[C@@]1([H])CC[C@@H]2Oc1ccccn1,-10.79 & -6.988
Cc1nn(C)c(C)c1NC(=O)CCn1ncc2ccccc21,13.44
CNc1ncc2c(n1)CN(CCc1ccc(C)cc1)C2=O,-5.597
CCC(C)(C)NC(=O)c1ccc(NC(=O)NCc2cc(C)no2)cc1,-0.2241
Cc1cc(=O)n(CCNS(=O)(=O)c2ccc(F)c(Cl)c2)cn1,15.61
Cc1cccc(CN2CCC3(CC2)NC(=O)C[C@H]3c2cnn(C)c2)n1.O=C(O)C(F)(F)F,-28.44
CC(C(=O)Nc1ccnn1C(C)C)N1CCN(Cc2ccon2)CC1 (stereo not drawn),-9.174
CCc1cnc(CN(C(C)=O)C2CCN(Cc3nccn3C)C2)o1 (stereo not drawn),-22.05
CN(Cc1ccc(-n2cccn2)cc1)c1nc(N)nc2c1CCNCC2,10.15
COc1ccc(Cl)cc1NCC(=O)N(Cc1cccnc1)C1CC1,-23.55
Cc1cccc(C2CCCN2C(=O)CN(C)S(C)(=O)=O)c1C (stereo not drawn),-13.92
Fc1ccc(OCCCNC2=NCCN2)cc1.I,7.733
CN1CCOC(CNCC(=O)NCCc2ccc3c(c2)OCCO3)C1 (stereo not drawn),-16.36
O=C(O)C(F)(F)F.[H][C@@]12CCN(S(=O)(=O)N(C)C)C[C@]1(COc1cccnc1)CCO2,3.067
COc1cccc(C(C)Nc2ncnc3c2NC(=O)CN3)c1 (stereo not drawn),9.262
CN(Cc1c[nH]nc1-c1ccc(F)cc1F)Cc1nccn1C,-10.76
Cc1nc(NCCc2ccc(Cl)cc2)cc(C(=O)N2CCCCC2)n1,-37.69
Cc1ncc(C)c(N2CCC(CCc3ccccc3)(C(=O)O)CC2)n1,5.821
CNC(=O)C1CCCN(c2nc(-c3ccco3)nc3c2CCNCC3)C1 (stereo not drawn),-4.344
CN(C(=O)Nc1ccncc1)C1CCN(c2ccc(Cl)cc2)CC1,5.871 & 17.52
COc1c(CNCc2ccc(OCC(N)=O)cc2)c(C)nn1C,-27.6
Cc1ccc(C(=O)NCC(O)c2ccc(F)c(F)c2)c(=O)[nH]1 (stereo not drawn),-7.787
O=C(CN1CCOC(c2ccccc2C(F)(F)F)C1)NC1CC1 (stereo not drawn),0.3895

The first 6 entries again:

| Compound | effect |
|---|---|
| `Cc1ccc(CCC(C)NC2CCN(C(N)=O)CC2)cc1` (stereo not drawn) | -2.535 |
| `CC(C)c1nccn1-c1cncc(C2CCCN(C3CCCC3)C2)n1` (stereo not drawn) | -14.85 |
| `COCCNC(=O)NC(c1ccccc1)c1ccccc1OC` (stereo not drawn) | 2.929 |
| `CC(C)N(C)Cc1nnc2n1CCCN(c1cnccn1)C2` | 1.316 |
| `CN(CCc1ccncc1)C(=O)C1CSCN1C(=O)CC(C)(C)C` (stereo not drawn) | -11.64 |
| `CN1CCCN(C(=O)c2cc3c(s2)CCN3C(=O)c2ccccc2)CC1` | -4.956 |